PMC10539329, “NLRP6 potentiates PI3K/AKT signalling by promoting autophagic degradation of p85α to drive tumorigenesis” (Nature Communications, 2023)

Molecular target: T1, endogenous NLRP6 (human (endogenous in LN229)) (UniProt P59044)
T1 sequence: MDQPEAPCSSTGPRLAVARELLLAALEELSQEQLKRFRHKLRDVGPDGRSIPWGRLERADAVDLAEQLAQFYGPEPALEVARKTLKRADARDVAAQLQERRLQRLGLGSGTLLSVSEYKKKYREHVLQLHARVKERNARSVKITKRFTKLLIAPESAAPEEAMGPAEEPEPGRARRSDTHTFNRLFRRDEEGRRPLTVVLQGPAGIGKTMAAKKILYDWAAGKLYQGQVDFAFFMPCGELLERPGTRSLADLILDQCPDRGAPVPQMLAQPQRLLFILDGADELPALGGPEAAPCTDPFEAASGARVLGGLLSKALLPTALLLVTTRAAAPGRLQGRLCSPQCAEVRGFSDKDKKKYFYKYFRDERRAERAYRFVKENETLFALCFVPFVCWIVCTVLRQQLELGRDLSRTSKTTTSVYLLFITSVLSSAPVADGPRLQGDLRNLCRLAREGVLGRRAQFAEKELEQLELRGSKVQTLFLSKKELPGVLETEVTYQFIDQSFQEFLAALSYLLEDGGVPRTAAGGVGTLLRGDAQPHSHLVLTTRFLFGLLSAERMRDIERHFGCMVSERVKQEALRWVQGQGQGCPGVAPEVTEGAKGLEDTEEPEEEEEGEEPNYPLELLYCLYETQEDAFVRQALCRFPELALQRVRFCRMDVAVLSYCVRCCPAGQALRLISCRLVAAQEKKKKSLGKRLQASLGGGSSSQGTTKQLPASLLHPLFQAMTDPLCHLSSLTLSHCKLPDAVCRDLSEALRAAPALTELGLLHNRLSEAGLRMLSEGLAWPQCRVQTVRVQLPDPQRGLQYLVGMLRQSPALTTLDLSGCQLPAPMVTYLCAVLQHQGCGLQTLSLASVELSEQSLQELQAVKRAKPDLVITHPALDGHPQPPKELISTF
Experiment: co-IP; endogenous proteins in LN229 cell lysates; lysate with the indicated antibody at 4 °C overnight, Protein A/G beads 2 h; control cells of the NLRP6 KO comparisons included

endogenous AKT (human (endogenous in LN229))
binding: no binding

Results are given in words; binding and its absence hold for the method and conditions named. In cells and extracts the contact can be indirect.
